In the supplement of paper PMC10849652:
The other results are listed elsewhere or left out.

Amino acid sequences for entries named in this document (tags omitted). A change or cut given only in a name is not applied to a line headed by its entry.
UniProt Q7Z5K2: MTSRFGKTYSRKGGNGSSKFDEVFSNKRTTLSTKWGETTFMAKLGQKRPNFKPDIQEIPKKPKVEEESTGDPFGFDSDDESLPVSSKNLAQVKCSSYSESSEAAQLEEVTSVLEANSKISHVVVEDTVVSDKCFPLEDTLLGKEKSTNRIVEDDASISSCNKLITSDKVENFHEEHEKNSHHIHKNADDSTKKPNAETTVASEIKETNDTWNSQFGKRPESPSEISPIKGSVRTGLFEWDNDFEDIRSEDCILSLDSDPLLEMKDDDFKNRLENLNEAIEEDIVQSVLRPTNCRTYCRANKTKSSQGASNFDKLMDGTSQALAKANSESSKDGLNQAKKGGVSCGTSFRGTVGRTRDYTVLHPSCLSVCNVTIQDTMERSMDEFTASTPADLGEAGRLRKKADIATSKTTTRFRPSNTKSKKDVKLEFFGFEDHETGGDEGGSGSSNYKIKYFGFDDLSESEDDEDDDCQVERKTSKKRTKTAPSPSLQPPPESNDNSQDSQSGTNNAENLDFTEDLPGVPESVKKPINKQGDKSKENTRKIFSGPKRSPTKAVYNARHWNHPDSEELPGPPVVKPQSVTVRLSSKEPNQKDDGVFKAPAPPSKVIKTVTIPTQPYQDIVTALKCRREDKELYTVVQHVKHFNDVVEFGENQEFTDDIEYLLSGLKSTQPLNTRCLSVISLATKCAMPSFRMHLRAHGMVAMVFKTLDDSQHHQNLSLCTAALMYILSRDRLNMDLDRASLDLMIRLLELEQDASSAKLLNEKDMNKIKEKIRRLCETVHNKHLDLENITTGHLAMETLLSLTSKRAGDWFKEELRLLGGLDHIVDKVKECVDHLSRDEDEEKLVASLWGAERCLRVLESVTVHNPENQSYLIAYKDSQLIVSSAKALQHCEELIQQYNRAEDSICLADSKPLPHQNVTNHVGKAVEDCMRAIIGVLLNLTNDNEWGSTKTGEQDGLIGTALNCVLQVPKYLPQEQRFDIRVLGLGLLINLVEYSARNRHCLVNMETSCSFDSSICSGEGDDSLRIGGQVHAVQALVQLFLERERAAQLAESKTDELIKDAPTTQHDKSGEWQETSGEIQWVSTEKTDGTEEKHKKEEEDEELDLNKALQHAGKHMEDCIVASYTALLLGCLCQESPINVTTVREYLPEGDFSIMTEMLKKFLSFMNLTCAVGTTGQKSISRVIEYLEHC
UniProt Q14135: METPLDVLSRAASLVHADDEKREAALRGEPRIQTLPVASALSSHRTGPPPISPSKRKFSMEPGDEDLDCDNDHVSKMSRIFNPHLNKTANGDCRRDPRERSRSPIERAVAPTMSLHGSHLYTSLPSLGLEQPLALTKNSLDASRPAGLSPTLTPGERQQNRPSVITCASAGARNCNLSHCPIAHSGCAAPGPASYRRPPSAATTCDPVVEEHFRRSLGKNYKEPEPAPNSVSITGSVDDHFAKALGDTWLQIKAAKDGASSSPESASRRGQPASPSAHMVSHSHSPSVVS
UniProt P57081: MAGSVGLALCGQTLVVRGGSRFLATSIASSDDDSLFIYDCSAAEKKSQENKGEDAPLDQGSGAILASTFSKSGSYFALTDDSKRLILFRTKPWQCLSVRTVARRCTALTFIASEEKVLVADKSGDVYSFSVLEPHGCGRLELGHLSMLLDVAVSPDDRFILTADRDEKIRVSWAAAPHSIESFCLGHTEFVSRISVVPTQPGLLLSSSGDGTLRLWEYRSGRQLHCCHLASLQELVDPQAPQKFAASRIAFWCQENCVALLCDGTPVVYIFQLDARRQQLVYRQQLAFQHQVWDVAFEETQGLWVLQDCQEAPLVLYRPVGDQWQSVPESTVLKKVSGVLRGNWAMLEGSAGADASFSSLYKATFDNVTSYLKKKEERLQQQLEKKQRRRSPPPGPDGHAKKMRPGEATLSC
UniProt Q96FK6: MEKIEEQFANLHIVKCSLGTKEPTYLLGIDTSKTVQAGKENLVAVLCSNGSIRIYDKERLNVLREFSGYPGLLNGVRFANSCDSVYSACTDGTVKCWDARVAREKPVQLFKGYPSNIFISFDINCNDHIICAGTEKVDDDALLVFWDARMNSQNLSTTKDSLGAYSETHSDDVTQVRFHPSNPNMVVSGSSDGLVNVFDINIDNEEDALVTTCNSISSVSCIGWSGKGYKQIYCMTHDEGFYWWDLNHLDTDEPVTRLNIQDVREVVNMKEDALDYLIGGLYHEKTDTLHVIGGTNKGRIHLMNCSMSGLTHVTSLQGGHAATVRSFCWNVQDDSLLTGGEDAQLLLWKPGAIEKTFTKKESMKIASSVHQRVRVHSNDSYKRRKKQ
UniProt Q96EX3: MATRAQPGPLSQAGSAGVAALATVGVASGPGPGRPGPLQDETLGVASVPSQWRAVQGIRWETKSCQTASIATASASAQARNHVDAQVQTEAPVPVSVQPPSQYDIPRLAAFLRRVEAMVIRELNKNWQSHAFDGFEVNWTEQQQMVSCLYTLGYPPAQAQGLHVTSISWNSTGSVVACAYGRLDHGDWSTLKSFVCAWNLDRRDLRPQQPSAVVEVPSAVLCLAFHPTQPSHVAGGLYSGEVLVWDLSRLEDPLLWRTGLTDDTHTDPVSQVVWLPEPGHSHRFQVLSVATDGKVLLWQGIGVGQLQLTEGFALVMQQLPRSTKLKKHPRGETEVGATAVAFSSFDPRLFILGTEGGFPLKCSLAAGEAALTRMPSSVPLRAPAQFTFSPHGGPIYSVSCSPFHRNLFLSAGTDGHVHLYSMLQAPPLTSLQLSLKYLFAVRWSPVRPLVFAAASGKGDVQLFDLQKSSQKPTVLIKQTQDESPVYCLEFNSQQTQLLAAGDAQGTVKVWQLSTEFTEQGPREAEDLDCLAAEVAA
UniProt Q9P2S5: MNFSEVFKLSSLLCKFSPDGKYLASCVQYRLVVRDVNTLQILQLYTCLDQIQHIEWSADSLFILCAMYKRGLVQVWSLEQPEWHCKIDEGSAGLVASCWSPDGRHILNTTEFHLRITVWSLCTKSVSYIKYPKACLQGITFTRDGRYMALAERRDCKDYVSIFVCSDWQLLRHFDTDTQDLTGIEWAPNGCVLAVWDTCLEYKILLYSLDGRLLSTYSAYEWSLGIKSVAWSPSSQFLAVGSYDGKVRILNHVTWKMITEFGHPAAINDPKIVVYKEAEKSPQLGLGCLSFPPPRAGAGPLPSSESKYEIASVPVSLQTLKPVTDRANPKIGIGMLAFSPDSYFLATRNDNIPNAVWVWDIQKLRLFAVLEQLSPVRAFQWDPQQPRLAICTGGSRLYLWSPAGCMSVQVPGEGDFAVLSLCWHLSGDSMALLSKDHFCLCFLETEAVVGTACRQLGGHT
UniProt Q8N3P4: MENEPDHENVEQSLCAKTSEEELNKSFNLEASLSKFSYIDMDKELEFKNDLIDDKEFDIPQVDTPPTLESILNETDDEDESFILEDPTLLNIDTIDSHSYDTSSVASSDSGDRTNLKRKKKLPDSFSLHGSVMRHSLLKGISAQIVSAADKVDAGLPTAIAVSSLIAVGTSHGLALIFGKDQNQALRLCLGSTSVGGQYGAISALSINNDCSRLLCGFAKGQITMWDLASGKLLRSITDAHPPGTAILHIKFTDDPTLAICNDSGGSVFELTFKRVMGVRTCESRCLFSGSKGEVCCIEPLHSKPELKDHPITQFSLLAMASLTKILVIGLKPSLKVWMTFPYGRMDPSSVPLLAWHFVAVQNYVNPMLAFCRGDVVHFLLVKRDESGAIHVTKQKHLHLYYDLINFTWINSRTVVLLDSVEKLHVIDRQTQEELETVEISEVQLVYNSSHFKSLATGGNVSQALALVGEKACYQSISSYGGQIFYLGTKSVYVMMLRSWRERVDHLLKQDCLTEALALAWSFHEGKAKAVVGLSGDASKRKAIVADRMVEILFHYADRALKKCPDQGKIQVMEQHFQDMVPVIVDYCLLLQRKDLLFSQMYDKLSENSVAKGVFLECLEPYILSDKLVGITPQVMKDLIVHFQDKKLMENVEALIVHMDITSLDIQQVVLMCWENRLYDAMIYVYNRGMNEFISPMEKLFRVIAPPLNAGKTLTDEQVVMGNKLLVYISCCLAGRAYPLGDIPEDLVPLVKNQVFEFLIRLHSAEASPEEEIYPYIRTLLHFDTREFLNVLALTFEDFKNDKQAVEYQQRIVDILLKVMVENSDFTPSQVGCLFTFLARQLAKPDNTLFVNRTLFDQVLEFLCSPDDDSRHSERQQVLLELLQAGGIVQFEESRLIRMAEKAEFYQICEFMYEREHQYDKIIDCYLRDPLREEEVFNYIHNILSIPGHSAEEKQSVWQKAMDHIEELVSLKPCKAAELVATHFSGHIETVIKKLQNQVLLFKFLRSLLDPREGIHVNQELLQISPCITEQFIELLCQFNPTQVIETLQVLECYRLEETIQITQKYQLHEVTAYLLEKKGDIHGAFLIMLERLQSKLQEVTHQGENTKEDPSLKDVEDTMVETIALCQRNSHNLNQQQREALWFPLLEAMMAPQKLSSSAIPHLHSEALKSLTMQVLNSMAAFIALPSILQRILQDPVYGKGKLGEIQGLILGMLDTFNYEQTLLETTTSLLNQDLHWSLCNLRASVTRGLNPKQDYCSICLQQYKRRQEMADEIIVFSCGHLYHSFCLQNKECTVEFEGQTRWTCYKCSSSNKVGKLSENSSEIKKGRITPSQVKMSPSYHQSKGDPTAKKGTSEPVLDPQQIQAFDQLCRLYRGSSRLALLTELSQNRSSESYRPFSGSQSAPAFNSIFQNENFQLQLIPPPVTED
UniProt Q9BRG1: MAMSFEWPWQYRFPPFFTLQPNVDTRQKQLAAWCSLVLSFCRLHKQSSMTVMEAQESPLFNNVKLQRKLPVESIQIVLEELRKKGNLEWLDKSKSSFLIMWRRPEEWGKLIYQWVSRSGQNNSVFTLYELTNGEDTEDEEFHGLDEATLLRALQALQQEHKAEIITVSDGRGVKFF
WASHC2C, A0A096LPC5, UniProt A0A096LPC5, whole entry, looked up: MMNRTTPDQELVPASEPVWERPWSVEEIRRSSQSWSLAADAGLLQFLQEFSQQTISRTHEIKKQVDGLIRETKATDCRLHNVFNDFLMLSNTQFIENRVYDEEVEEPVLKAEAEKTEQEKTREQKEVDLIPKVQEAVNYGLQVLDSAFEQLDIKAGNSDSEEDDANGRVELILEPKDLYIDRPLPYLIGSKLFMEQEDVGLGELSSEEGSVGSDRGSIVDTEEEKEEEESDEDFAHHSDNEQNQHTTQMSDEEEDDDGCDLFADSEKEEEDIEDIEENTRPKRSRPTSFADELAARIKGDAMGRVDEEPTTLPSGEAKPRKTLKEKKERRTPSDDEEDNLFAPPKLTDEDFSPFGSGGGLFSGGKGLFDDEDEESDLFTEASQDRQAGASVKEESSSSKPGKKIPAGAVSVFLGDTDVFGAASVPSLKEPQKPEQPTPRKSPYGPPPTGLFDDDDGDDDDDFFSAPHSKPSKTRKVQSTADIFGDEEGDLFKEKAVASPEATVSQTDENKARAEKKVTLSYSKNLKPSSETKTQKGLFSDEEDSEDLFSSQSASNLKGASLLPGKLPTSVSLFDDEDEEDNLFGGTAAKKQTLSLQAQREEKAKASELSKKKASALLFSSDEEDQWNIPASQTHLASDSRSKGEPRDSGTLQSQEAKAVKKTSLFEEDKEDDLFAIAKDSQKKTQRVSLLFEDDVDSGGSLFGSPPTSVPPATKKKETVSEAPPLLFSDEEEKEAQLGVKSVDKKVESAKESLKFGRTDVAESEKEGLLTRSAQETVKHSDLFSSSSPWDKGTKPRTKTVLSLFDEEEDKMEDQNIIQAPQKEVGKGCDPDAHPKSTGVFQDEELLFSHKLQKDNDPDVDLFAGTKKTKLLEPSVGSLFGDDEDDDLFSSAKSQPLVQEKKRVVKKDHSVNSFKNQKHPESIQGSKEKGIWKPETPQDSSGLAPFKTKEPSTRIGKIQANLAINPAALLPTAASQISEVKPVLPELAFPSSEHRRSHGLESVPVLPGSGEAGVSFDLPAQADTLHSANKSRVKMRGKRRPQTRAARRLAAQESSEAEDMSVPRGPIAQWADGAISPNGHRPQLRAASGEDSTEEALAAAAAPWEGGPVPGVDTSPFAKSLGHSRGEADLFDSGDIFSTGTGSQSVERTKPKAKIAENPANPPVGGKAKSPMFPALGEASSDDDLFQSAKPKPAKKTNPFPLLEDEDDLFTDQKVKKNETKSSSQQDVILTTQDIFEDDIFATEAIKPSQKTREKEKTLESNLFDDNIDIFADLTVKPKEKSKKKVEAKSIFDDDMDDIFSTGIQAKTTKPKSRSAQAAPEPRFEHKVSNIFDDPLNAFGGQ
UniProt O75554: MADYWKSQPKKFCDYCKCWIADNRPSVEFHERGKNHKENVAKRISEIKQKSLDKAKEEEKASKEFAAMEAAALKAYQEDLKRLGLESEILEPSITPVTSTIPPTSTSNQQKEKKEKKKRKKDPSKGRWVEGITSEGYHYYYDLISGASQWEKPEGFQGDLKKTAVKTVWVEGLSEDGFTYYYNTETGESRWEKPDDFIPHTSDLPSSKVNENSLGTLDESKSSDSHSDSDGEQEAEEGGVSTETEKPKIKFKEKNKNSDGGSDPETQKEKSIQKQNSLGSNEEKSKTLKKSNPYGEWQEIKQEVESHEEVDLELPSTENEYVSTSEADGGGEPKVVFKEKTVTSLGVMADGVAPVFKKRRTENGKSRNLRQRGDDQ

Compound: CCCS(=O)(=O)Nc1ccc(F)c(C(=O)c2c[nH]c3ncc(-c4ccc(Cl)cc4)cc23)c1F [vemurafenib]
Experiment: log2 fold change, soluble protein after heating vs DMSO (PISA); higher = thermal stabilisation; K562 cells, 10 uM, 30 min; active = over 0.2 and 3.5 SD of the protein, either way, in both replicates (recomputed)
In short: (§1)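 Quantification of soluble protein used TMTpro 16plex LC-MS/MS, with channel sums equalised. Samples were the supernatant after 21,000xg for 90 min of pooled aliquots from K562 cells (2×10^6 cells/mL) treated with 10 μM compound for 30 min, heated for 3 min over 48°C-58°C, and extracted in PBS with 0.5% NP-40 at 4°C. Values, from duplicates, describe thermal stability against control samples on a log2 fold-change scale.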

log2 fold change, inactive:
WAPL isoform 3 (UniProt Q7Z5K2) 0.097
VGLL4 isoform 4 (UniProt Q14135) 0.047
VPS13A (UniProt Q96RL7) -0.046
VPS53 isoform 4 (UniProt Q5VIR6) 0.046
WDR47 (UniProt O94967) -0.023
WIPI2 (UniProt Q9Y4P8) -0.009
WDR62 isoform 4 (UniProt O43379) 0.008
VPS11 (UniProt Q9H270) 0.016
VPS51 (UniProt Q9UID3) 0.034
VWA8 (UniProt A3KMH1) 0.034
WDR4 (UniProt P57081) -0.004
VPS13C (UniProt Q709C8) -0.015
WDR82 (UniProt Q6UXN9) -0.073
VEZT (UniProt Q9HBM0) 0.143
WDR45 (UniProt Q9Y484) 0.03
WIPF3 (UniProt A6NGB9) 0.054
WDR89 (UniProt Q96FK6) -0.025
WDR34 (UniProt Q96EX3) -0.032
VKORC1L1, A0A3B3ISV4 -0.111
WIZ (UniProt O95785) -0.013
VRK1 (UniProt Q99986) 0.122
WRAP73 (UniProt Q9P2S5) -0.018
VPS8 (UniProt Q8N3P4) 0.048
WDR36 (UniProt Q8NI36) -0.042
VPS41 (UniProt P49754) -0.051
VWDE (UniProt Q8N2E2) -0.032
VDAC1 (UniProt P21796) 0.015
VPS25 (UniProt Q9BRG1) 0.041
WASHC2C, A0A096LPC5 0.039
VIM (UniProt P08670) -0.063
VPS35 (UniProt Q96QK1) 0.012
WDR48 (UniProt Q8TAF3) -0.025
WBP4 (UniProt O75554) 0.022

Compound: CCCS(=O)(=O)Nc1ccc(F)c(C(=O)c2c[nH]c3ncc(Cl)cc23)c1F
Experiment: as above
In short: as §1

log2 fold change, active:
WDR4 (UniProt P57081) 0.26

log2 fold change, inactive:
WAPL isoform 3 (UniProt Q7Z5K2) 0.083
VGLL4 isoform 4 (UniProt Q14135) -0.09
VPS13A (UniProt Q96RL7) 0.016
VPS53 isoform 4 (UniProt Q5VIR6) 0.003
WDR47 (UniProt O94967) -0.045
WIPI2 (UniProt Q9Y4P8) 0.013
WDR62 isoform 4 (UniProt O43379) 0.053
VPS11 (UniProt Q9H270) 0.073
VPS51 (UniProt Q9UID3) 0.021
VWA8 (UniProt A3KMH1) 0.011
VPS13C (UniProt Q709C8) 0.014
WDR82 (UniProt Q6UXN9) 0.003
VEZT (UniProt Q9HBM0) -0.006
WDR45 (UniProt Q9Y484) 0.004
WIPF3 (UniProt A6NGB9) 0.02
WDR89 (UniProt Q96FK6) -0.023
WDR34 (UniProt Q96EX3) 0.02
VKORC1L1, A0A3B3ISV4 0
WIZ (UniProt O95785) -0.046
VRK1 (UniProt Q99986) 0.072
WRAP73 (UniProt Q9P2S5) -0.017
VPS8 (UniProt Q8N3P4) 0.126
WDR36 (UniProt Q8NI36) 0.017
VPS41 (UniProt P49754) 0.025
VWDE (UniProt Q8N2E2) -0.055
VDAC1 (UniProt P21796) 0.018
VPS25 (UniProt Q9BRG1) 0.015
WASHC2C, A0A096LPC5 -0.206
VIM (UniProt P08670) -0.031
VPS35 (UniProt Q96QK1) 0.028
WDR48 (UniProt Q8TAF3) -0.004
WBP4 (UniProt O75554) 0.011

Compound: CCCc1cc(C)[nH]c(=O)c1CNC(=O)c1cc(-c2ccnc(N3CCN(C)CC3)c2)cc2c1cnn2C(C)C
Experiment: as above
In short: as §1

log2 fold change, inactive:
WAPL isoform 3 (UniProt Q7Z5K2) -0.054
VGLL4 isoform 4 (UniProt Q14135) 0.04
VPS13A (UniProt Q96RL7) -0.02
VPS53 isoform 4 (UniProt Q5VIR6) 0.03
WDR47 (UniProt O94967) -0.004
WIPI2 (UniProt Q9Y4P8) -0.031
WDR62 isoform 4 (UniProt O43379) -0.014
VPS11 (UniProt Q9H270) 0.031
VPS51 (UniProt Q9UID3) 0.032
VWA8 (UniProt A3KMH1) 0.032
WDR4 (UniProt P57081) -0.013
VPS13C (UniProt Q709C8) -0.039
WDR82 (UniProt Q6UXN9) 0.066
VEZT (UniProt Q9HBM0) 0.061
WDR45 (UniProt Q9Y484) -0.012
WIPF3 (UniProt A6NGB9) -0.086
WDR89 (UniProt Q96FK6) 0.074
WDR34 (UniProt Q96EX3) 0.207
VKORC1L1, A0A3B3ISV4 -0.096
WIZ (UniProt O95785) -0.025
VRK1 (UniProt Q99986) 0.108
WRAP73 (UniProt Q9P2S5) 0.001
VPS8 (UniProt Q8N3P4) -0.04
WDR36 (UniProt Q8NI36) 0.053
VPS41 (UniProt P49754) -0.03
VWDE (UniProt Q8N2E2) 0.002
VDAC1 (UniProt P21796) -0.005
VPS25 (UniProt Q9BRG1) -0.044
WASHC2C, A0A096LPC5 -0.101
VIM (UniProt P08670) 0.096
VPS35 (UniProt Q96QK1) -0.017
WDR48 (UniProt Q8TAF3) -0.057
WBP4 (UniProt O75554) 0
